# In the supplement of paper PMC6411743:
# Chains of the proteins cited; added tags and fusions are not shown. Lines headed by an entry give the natural chain unless they say otherwise; changes in a name come on top.
# UniProt Q9BVC4, whole entry: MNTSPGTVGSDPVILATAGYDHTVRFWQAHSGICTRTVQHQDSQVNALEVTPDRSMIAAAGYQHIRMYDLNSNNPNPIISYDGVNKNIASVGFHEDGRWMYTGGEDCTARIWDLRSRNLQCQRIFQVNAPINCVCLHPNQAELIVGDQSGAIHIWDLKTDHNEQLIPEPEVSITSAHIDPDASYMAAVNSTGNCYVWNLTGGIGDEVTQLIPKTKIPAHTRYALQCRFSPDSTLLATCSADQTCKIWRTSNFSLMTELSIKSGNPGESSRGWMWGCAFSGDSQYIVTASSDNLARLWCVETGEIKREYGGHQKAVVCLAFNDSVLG
# UniProt Q99704: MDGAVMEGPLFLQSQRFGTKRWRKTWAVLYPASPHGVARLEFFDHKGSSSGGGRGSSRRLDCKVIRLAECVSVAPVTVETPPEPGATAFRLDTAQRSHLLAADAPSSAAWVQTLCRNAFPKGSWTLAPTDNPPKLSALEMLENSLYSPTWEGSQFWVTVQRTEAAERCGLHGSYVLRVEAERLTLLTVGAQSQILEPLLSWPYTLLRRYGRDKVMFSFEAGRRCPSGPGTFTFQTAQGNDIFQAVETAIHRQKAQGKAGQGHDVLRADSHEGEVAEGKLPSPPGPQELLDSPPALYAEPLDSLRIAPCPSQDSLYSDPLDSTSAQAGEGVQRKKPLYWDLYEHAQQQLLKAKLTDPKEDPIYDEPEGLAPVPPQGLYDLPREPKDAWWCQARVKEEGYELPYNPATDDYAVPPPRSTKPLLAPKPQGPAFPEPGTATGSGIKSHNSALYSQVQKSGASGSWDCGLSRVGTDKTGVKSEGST
# UniProt Q99733: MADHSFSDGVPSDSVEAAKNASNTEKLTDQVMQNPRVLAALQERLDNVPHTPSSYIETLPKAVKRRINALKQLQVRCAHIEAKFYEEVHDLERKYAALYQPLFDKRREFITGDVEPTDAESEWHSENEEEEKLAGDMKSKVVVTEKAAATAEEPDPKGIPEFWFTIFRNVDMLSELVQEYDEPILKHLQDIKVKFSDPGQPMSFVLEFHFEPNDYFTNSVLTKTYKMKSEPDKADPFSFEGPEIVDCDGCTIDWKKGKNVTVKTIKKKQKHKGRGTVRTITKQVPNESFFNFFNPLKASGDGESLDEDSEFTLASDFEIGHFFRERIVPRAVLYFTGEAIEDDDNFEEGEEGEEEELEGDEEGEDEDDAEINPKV
# UniProt Q9BWS9: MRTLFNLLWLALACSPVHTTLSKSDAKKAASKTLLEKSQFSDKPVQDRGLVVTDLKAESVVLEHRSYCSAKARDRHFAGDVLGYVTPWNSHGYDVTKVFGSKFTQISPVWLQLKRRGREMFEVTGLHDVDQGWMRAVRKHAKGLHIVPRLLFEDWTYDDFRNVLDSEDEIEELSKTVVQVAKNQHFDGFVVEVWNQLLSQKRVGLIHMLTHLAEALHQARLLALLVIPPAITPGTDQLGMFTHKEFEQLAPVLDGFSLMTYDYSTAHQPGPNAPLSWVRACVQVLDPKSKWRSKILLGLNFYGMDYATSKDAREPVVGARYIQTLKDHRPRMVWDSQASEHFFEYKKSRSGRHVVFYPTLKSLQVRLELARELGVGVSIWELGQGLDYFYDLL
# UniProt Q9BVW5: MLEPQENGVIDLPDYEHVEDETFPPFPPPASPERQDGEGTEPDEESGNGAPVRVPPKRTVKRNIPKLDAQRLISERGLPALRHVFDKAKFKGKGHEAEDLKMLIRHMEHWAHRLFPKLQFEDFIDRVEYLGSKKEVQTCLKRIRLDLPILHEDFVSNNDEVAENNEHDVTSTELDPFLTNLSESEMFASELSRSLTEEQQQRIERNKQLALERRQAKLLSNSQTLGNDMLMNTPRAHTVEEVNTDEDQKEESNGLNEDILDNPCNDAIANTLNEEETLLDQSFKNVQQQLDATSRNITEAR
# UniProt Q9BUE0: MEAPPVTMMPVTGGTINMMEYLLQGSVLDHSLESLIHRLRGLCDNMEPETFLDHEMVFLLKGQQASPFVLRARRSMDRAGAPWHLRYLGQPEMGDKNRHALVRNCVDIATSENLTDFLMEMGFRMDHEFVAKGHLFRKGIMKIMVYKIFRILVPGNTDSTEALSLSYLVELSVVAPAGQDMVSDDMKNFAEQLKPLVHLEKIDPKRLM
# UniProt Q99536: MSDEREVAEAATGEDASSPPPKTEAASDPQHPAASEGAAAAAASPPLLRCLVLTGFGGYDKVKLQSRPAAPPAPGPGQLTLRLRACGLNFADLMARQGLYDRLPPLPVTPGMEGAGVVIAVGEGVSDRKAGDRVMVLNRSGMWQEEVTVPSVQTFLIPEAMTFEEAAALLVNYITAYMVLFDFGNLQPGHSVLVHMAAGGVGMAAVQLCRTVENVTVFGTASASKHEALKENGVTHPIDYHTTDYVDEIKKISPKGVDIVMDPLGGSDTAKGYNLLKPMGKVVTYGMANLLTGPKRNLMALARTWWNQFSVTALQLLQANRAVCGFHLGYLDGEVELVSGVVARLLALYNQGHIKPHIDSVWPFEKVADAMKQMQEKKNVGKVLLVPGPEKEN
# UniProt Q99640: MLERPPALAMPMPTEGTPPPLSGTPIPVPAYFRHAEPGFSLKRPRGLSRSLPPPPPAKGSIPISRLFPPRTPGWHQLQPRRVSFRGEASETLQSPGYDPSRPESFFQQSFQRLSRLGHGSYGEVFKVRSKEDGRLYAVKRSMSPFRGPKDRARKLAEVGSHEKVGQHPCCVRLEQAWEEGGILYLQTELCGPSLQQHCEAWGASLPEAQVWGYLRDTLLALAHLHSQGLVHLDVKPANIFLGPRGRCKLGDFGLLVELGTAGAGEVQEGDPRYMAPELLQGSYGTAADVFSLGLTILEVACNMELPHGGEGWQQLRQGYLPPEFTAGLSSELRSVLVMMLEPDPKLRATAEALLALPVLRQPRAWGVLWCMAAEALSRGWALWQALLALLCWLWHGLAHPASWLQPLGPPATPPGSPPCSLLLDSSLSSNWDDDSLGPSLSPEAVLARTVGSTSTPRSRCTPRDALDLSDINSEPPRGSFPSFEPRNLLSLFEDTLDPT
# UniProt Q9BXI6: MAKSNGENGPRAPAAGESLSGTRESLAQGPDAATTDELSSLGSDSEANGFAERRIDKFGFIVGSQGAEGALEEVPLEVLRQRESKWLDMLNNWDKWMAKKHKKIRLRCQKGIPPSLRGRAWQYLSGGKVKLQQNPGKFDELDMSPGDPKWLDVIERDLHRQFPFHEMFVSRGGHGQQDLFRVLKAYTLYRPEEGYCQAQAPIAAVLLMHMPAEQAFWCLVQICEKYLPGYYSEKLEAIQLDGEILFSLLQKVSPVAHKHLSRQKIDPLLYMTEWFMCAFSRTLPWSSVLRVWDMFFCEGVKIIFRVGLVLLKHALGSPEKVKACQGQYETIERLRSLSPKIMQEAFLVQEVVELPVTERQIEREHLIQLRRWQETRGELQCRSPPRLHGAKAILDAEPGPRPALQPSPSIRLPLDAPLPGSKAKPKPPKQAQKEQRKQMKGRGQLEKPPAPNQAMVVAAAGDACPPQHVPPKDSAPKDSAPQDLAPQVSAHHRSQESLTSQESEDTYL
# UniProt Q99567: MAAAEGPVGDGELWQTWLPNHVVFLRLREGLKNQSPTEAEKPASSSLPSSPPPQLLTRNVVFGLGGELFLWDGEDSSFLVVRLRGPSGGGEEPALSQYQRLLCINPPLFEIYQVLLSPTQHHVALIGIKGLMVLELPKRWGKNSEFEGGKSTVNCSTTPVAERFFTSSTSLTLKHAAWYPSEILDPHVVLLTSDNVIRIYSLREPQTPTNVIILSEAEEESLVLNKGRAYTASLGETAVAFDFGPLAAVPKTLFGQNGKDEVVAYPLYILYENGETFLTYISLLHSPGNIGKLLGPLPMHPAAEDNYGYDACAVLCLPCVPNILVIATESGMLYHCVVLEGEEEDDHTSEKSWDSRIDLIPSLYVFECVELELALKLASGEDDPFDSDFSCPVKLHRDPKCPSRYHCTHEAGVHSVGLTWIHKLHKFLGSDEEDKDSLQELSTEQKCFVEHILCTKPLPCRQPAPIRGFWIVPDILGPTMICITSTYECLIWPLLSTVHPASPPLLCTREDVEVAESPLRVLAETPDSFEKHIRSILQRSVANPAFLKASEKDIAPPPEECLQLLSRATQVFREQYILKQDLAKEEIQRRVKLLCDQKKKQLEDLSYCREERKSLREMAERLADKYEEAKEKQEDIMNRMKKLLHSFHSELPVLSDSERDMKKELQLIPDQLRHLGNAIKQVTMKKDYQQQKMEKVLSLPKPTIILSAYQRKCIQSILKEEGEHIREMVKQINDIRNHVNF
# UniProt Q9BU64: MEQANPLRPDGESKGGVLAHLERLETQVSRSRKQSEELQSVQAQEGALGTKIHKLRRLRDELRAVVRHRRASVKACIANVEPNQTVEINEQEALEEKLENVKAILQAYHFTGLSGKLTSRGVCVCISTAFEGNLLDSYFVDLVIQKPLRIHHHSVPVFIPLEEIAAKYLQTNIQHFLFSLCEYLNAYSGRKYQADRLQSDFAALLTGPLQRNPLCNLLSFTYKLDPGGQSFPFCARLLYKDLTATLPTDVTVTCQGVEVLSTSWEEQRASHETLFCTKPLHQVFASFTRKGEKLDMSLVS
# UniProt Q9BVI0: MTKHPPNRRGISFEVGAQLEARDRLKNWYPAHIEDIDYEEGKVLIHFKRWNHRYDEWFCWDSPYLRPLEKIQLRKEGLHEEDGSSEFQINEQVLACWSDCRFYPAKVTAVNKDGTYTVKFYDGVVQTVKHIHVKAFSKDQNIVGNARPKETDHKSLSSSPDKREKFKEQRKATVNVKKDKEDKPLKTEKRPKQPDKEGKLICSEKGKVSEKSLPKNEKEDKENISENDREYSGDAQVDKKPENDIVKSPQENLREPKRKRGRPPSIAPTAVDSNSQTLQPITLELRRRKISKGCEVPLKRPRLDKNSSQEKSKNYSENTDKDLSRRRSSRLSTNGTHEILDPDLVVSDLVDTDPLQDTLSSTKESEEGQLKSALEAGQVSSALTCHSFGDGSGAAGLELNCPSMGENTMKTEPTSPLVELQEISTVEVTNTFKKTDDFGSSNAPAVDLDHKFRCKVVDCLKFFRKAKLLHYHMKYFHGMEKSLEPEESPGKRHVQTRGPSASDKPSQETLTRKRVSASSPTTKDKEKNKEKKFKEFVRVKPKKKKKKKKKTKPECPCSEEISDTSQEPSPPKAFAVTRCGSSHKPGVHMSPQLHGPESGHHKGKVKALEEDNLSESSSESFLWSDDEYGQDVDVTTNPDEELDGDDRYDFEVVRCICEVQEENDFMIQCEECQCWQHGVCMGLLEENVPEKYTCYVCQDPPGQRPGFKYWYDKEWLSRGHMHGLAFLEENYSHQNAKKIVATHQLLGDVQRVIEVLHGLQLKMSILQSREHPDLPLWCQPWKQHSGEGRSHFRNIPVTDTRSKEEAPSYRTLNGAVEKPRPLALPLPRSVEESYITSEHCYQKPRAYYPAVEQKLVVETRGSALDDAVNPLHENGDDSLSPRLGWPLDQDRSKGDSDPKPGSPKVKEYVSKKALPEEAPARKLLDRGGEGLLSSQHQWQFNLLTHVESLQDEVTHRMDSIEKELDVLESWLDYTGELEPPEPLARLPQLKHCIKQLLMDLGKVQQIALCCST
# UniProt Q9BT25: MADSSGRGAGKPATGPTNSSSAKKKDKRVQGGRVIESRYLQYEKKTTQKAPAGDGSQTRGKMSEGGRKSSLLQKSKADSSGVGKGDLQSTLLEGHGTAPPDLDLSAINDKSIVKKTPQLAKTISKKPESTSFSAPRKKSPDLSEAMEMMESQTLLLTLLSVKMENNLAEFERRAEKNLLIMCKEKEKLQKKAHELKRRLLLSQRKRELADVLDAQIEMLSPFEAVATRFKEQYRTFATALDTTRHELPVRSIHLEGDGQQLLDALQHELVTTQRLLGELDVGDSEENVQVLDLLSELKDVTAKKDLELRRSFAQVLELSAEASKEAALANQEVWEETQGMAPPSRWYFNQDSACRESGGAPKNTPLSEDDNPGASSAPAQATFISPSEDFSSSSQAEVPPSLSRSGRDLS
# UniProt Q9BVK6: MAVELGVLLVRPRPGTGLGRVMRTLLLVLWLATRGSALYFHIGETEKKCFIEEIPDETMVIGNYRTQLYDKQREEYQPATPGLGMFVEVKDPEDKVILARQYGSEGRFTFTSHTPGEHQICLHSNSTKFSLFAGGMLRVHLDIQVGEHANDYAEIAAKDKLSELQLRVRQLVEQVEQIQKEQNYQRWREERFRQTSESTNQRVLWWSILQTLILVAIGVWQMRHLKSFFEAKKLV
# UniProt Q99873, whole entry, looked up: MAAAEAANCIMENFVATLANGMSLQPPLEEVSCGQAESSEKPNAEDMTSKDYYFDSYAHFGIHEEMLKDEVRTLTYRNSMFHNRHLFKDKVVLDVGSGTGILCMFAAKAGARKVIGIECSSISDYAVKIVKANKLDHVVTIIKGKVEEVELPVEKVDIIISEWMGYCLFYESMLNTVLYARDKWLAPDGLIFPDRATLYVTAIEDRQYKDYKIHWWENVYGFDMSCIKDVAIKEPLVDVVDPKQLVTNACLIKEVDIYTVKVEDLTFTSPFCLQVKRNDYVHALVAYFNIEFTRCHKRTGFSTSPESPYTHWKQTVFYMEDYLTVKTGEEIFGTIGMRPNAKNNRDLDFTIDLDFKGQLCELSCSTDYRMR
# ± gives the standard deviation of the averaged measurements. Only a part is listed here, and it is no random draw.
# Compound: Nc1ncnc2c1ncn2[C@@H]1O[C@H](COP(=O)(O)OP(=O)(O)NP(=O)(O)O)[C@@H](O)[C@H]1O [adenylyl imidodiphosphate]
# Experiment: NP40-soluble protein abundance relative to vehicle (solubility fold change) (ratio); higher = more soluble protein in presence of AMP-PNP
# How it was run: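 Across three independent experiments, values are fold changes against the detergent-processed vehicle for each replicate, based on vsn-normalised intensities. The samples were Jurkat crude lysate treated with eight concentrations (0.1 to 10 mM) for 10 min at room temperature and then 3 min at 37 °C. Lysate was solubilised with 0.8% NP40 and benzonase, ultracentrifuged, and the supernatant analysed by TMT-labelled LC-MS/MS.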
Target,NP40-soluble protein abundance (concentration: 1mM),NP40-soluble protein abundance (concentration: 2mM),NP40-soluble protein abundance (concentration: 4mM),NP40-soluble protein abundance (concentration: 6mM),NP40-soluble protein abundance (concentration: 8mM),NP40-soluble protein abundance (concentration: 10mM)
MRPL9 (UniProt Q9BYD2),1.04 ± 0.13,0.967 ± 0.13,1.03 ± 0.075,0.982 ± 0.09,1.01 ± 0.072,0.972 ± 0.15
MAK16 (UniProt Q9BXY0),1.05 ± 0.037,1.08 ± 0.015,1.05 ± 0.027,1.06 ± 0.053,1.1 ± 0.018,1.12 ± 0.015
DDX23 (UniProt Q9BUQ8),1.05 ± 0.038,1.05 ± 0.047,1.07 ± 0.059,1.14 ± 0.091,1.2 ± 0.083,1.3 ± 0.17
UniProt Q9BVC5 and related entries,0.915 ± 0.024,0.987 ± 0.026,0.966 ± 0.025,1.03 ± 0.025,1.036 ± 0.0066,1.06 ± 0.065
UniProt Q9BYX2 and related entries,0.981 ± 0.013,0.9921 ± 0.0015,1 ± 0.028,0.985 ± 0.042,0.972 ± 0.012,0.9639 ± 0.0013
UniProt Q9BVC4,1 ± 0.052,0.953 ± 0.033,0.949 ± 0.055,0.953 ± 0.067,0.959 ± 0.063,0.969 ± 0.052
HEMGN (UniProt Q9BXL5),0.999 ± 0.026,1.05 ± 0.066,1.017 ± 0.0072,1 ± 0.021,0.992 ± 0.018,0.991 ± 0.014
DOK1 (UniProt Q99704),1.04 ± 0.019,1.02 ± 0.023,1.02 ± 0.053,0.985 ± 0.037,1.007 ± 0.01,1 ± 0.033
ECSIT (UniProt Q9BQ95),0.994 ± 0.013,0.953 ± 0.019,1 ± 0.019,1.01 ± 0.036,0.989 ± 0.018,0.992 ± 0.044
UniProt Q99733 and related entries,1.02 ± 0.012,1.04 ± 0.076,1 ± 0.023,1.05 ± 0.071,1.05 ± 0.07,1.07 ± 0.1
UniProt Q9BXW9 and related entries,0.998 ± 0.052,1.02 ± 0.029,0.984 ± 0.043,1.01 ± 0.029,0.943 ± 0.033,1 ± 0.031
UniProt Q9BWS9 and related entries,0.953 ± 0.038,0.89 ± 0.066,0.955 ± 0.026,0.965 ± 0.022,0.9924 ± 0.0078,0.945 ± 0.016
TIPIN (UniProt Q9BVW5),0.948 ± 0.06,1.04 ± 0.14,0.933 ± 0.072,0.928 ± 0.063,0.911 ± 0.057,0.929 ± 0.093
MED18 (UniProt Q9BUE0),0.989 ± 0.028,0.959 ± 0.013,0.962 ± 0.022,0.933 ± 0.059,0.911 ± 0.059,0.907 ± 0.036
UniProt Q9BRJ7 and related entries,1.01 ± 0.036,1.01 ± 0.022,1.03 ± 0.043,1.03 ± 0.036,1.04 ± 0.077,1.05 ± 0.053
VAT1 (UniProt Q99536),0.976 ± 0.02,0.987 ± 0.034,0.962 ± 0.029,1 ± 0.05,0.981 ± 0.044,0.975 ± 0.051
UniProt Q99640 and related entries,0.99 ± 0.024,1 ± 0.013,0.991 ± 0.011,0.962 ± 0.039,0.919 ± 0.023,0.951 ± 0.04
GINS4 (UniProt Q9BRT9),0.954 ± 0.015,0.965 ± 0.031,0.9378 ± 0.0092,0.9202 ± 0.0076,0.919 ± 0.043,0.883 ± 0.037

# Reformatted: results already given
Target	NP40-soluble protein abundance (concentration: 1mM)	NP40-soluble protein abundance (concentration: 2mM)	NP40-soluble protein abundance (concentration: 4mM)	NP40-soluble protein abundance (concentration: 6mM)	NP40-soluble protein abundance (concentration: 8mM)	NP40-soluble protein abundance (concentration: 10mM)
MAK16 (UniProt Q9BXY0)	1.05 ± 0.037	1.08 ± 0.015	1.05 ± 0.027	1.06 ± 0.053	1.1 ± 0.018	1.12 ± 0.015
DDX23 (UniProt Q9BUQ8)	1.05 ± 0.038	1.05 ± 0.047	1.07 ± 0.059	1.14 ± 0.091	1.2 ± 0.083	1.3 ± 0.17

# Continued:

Target,NP40-soluble protein abundance (concentration: 1mM),NP40-soluble protein abundance (concentration: 2mM),NP40-soluble protein abundance (concentration: 4mM),NP40-soluble protein abundance (concentration: 6mM),NP40-soluble protein abundance (concentration: 8mM),NP40-soluble protein abundance (concentration: 10mM)
UniProt Q9BXI6 and related entries,0.989 ± 0.036,1.02 ± 0.037,1.01 ± 0.023,1.01 ± 0.011,1 ± 0.015,1.01 ± 0.024
PAFAH2 (UniProt Q99487),1.01 ± 0.045,0.963 ± 0.05,0.99 ± 0.023,0.973 ± 0.033,0.977 ± 0.01,0.971 ± 0.0095
NUP88 (UniProt Q99567),0.981 ± 0.04,0.973 ± 0.021,1.03 ± 0.032,0.978 ± 0.014,1.01 ± 0.039,1.08 ± 0.043
CENPO (UniProt Q9BU64),1.03 ± 0.012,1.03 ± 0.016,1.02 ± 0.022,1.02 ± 0.0093,1.011 ± 0.0061,1.04 ± 0.018
KATNAL1 (UniProt Q9BW62),1.02 ± 0.03,0.993 ± 0.041,0.9898 ± 0.0076,0.9557 ± 0.00015,0.949 ± 0.018,0.943 ± 0.039
UniProt Q99490-2|F8VVT9 and related entries,0.976 ± 0.026,0.941 ± 0.056,1.02 ± 0.035,0.988 ± 0.046,1.01 ± 0.019,1.02 ± 0.042
ITPA (UniProt Q9BY32),1.03 ± 0.033,1.06 ± 0.04,1.03 ± 0.051,1.04 ± 0.048,1.04 ± 0.077,1.05 ± 0.097
UniProt Q96SU4 and related entries,1.02 ± 0.02,0.987 ± 0.017,0.982 ± 0.021,0.971 ± 0.011,0.974 ± 0.015,0.975 ± 0.015
UniProt Q9BRG1 and related entries,1.04 ± 0.028,0.957 ± 0.094,1.02 ± 0.063,0.931 ± 0.043,0.982 ± 0.071,0.942 ± 0.099
DPH2 (UniProt Q9BQC3),1.01 ± 0.041,0.973 ± 0.028,1 ± 0.021,0.998 ± 0.017,1.02 ± 0.023,1.01 ± 0.012
RNF5 (UniProt Q99942),1.06 ± 0.077,1.03 ± 0.045,1.03 ± 0.057,1 ± 0.033,1.03 ± 0.059,0.9838 ± 0.0018
PHF20 (UniProt Q9BVI0),1.06 ± 0.033,1.13 ± 0.048,1.12 ± 0.025,1.18 ± 0.042,1.16 ± 0.069,1.24 ± 0.046
UniProt Q9BT25 and related entries,1.01 ± 0.014,1.04 ± 0.099,0.96 ± 0.048,0.94 ± 0.018,0.958 ± 0.027,0.952 ± 0.025
TMED9 (UniProt Q9BVK6),0.959 ± 0.036,0.919 ± 0.026,0.91 ± 0.013,0.965 ± 0.056,0.97 ± 0.041,0.957 ± 0.013
UniProt Q99873-3|Q99873-4,0.955 ± 0.064,0.812 ± 0.13,0.9148 ± 0.0045,0.889 ± 0.033,0.957 ± 0.033,0.847 ± 0.059
UniProt Q96T23 and related entries,1.07 ± 0.026,1.21 ± 0.11,1.32 ± 0.061,1.53 ± 0.18,1.67 ± 0.21,1.93 ± 0.25
ACAT2 (UniProt Q9BWD1),0.987 ± 0.021,0.996 ± 0.038,0.931 ± 0.021,0.967 ± 0.017,0.951 ± 0.021,0.92 ± 0.02
